Source: US20250051510A1, “CARBON-IODINE CONJUGATED POLYMER AND PREPARATION THEREOF, AND USE THEREOF FOR PREPARING LOCALIZATION MARKER” (Huazhong University of Science and Technology, priority 2021, published 2025)
For at least one compound, name, drawing or mass did not settle the structure.

Experiments:
[1] = Local injection into rat leg muscles under CT guidance, CT marking over time; format: in vivo; settings: rat leg muscle
Method: In order to verify whether the super-strong CT imaging effect of PIDA is practically applicable, the PIDA dispersion and iohexol with the same iodine content were injected locally into leg muscles of a rat respectively under CT guidance in the present invention. For effective CT marking, the CT signal intensity thereof should be 2 times or more that of background tissues. A background CT signal of rat muscle tissues is about 50 HU, so the CT marking signal intensity exceeding 100 HU can be regarded as effective CT marking. […] To further verify the high efficiency and location stability of PIDA CT imaging, in the present invention, iohexol with the iodine content being increased by 25 times was injected into a corresponding leg muscle site of a rat.

[2] = Injection around a tumor in a rat, CT and color marking of tumor contour; format: in vivo; settings: injected around tumor
[3] = CT imaging of in-vitro tissues (injection into fat layer and muscle layer of pork); parameters: species or system pigs; settings: same iodine content

CC(=O)N(CC(O)CO)c1c(I)c(C(=O)NCC(O)CO)c(I)c(C(=O)NCC(O)CO)c1I (stereo not drawn) [iohexol]
CT marking (curve of CT signal intensity over time) ([1]; 5 mg/ml PIDA dispersion or iohexol with the same iodine content): basically had no marking effect | CT marking (curve of CT signal intensity over time) ([1]; iohexol with ultra-high concentration): the signal intensity attenuated too quickly | CT enhancement at intramuscular injection site ([1]; same iodine content): no local enhancement was observed | CT marking around tumor over time (signal intensity and relative position) [2]: rapidly disappeared | CT signal intensity ([3]; first-named 'muscle layer'): 21.7 HU | CT signal intensity ([3]; relatively denser muscle layer): 14.5 HU
